Data source: PubChem BioAssay AID743121 (NCATS, 2013)
In all, the deposit lists about 26,000 reagents; this is an unselected part. Of all reagents, 167 (0.63%) were called active. 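Calls are per gene from RSA p-values that are not deposited; an individual active-marked siRNA can sensitise only weakly.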 Reagents against one gene are numbered here.

- Purpose: 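Genes whose silencing strengthens cell killing by camptothecin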 (primary screen)
- System: MDA-MB-231 cells, a human breast cancer line
- Reagents: single siRNA against human genes, 20 nM siRNA (0.8 pmol per well)
- Timing: 120 h (drug added 48 h after transfection, read 72 h later)
- Treatment: camptothecin 20 nM (about EC30) for 72 h; vehicle 0.1% DMSO in parallel plates
- Measured: 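CellTiter-Glo ATP signal, scaled to control siRNA as percent viability; sensitisation given as log2 of untreated divided by camptothecin-treated viability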
- Scale: log2 vehicle/camptothecin viability: higher = stronger sensitisation to camptothecin; viability with camptothecin and viability without drug: higher = more viable cells
- Hit rule: 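Active genes have an RSA gene-level p-value below 0.001, computed from the ratios of their separate siRNAs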

no.	target	siRNA no.	log2 vehicle/camptothecin viability	viability with camptothecin (% of control)	viability without drug (% of control)	outcome
1	SSTR4	1	-0.14	66.1	60	inactive
2	SSTR4	2	0.0485	50.5	52.3	inactive
3	SSTR4	3	-0.292	62.3	50.9	inactive
4	SSTR4	4	-0.0457	84.7	82	inactive
5	CENPK	1	-0.204	111	96.1	inactive
6	CENPK	2	-0.0384	43.3	42.2	inactive
7	CENPK	3	-0.252	32.8	27.6	inactive
8	CENPK	4	-0.119	78.1	71.9	inactive
9	SEMA4D	1	-0.0714	80.2	76.3	inactive
10	SEMA4D	2	-0.368	84.6	65.6	inactive
11	SEMA4D	3	0.023	103	104	inactive
12	SEMA4D	4	-0.042	58.4	56.7	inactive
13	B4GALT1	1	-0.557	88.8	60.4	inactive
14	B4GALT1	2	-0.249	94.8	79.8	inactive
15	CDC14A	1	-0.347	75.9	59.7	inactive
16	CDC14A	2	-0.252	72.1	60.6	inactive
17	CDC14A	3	-0.0942	88.7	83.1	inactive
18	CDC14A	4	-0.182	105	92.9	inactive
19	IP6K1	1	-0.404	100	75.9	inactive
20	IP6K1	2	0.131	59.6	65.3	inactive
21	IP6K1	3	0.0122	18.3	18.5	inactive
22	IP6K1	4	-0.00308	48.8	48.7	inactive
23	CD46	1	-0.0386	62.6	60.9	inactive
24	CD46	2	-0.151	63.3	57	inactive
25	CD46	3	-0.264	96.1	80	inactive
26	CD46	4	-0.303	26.4	21.4	inactive
27	TRIM41	1	-0.328	73.1	58.2	inactive
28	TRIM41	2	-0.379	94.6	72.7	inactive
29	TRIM41	3	-0.0491	72.8	70.3	inactive
30	TRIM41	4	-0.412	93.3	70.1	inactive
31	SLC12A8	1	-0.315	64.2	51.6	inactive
32	SLC12A8	2	-0.528	61.5	42.7	inactive
33	SLC12A8	3	0.076	73.3	77.3	inactive
34	SLC12A8	4	-0.342	86.9	68.6	inactive
35	CXCL8	1	-0.112	73.5	68	inactive
36	CXCL8	2	0.0284	55.4	56.5	inactive
37	CXCL8	3	-0.499	131	92.9	inactive
38	CHRM1	1	-0.258	51.3	42.9	inactive
39	CHRM1	2	-0.0697	90.1	85.9	inactive
40	CHRM1	3	0.49	53	74.4	inactive
41	CHRM1	4	-0.488	89.7	63.9	inactive
42	MSGN1	1	-0.247	78.1	65.8	inactive
43	MSGN1	2	0.242	1.03	1.21	inactive
44	MSGN1	3	0.321	38.9	48.6	inactive
45	MSGN1	4	-0.249	113	95.4	inactive
46	CDH5	1	0.0059	39.6	39.8	inactive
47	CDH5	2	-0.187	124	108	inactive
48	CDH5	3	-0.103	115	107	inactive
49	CDH5	4	0.0695	88.2	92.6	inactive

Targets above whose target name begins with M or m:
target	siRNA no.	log2 vehicle/camptothecin viability	viability with camptothecin (% of control)	viability without drug (% of control)	outcome
MSGN1	1	-0.247	78.1	65.8	inactive
MSGN1	2	0.242	1.03	1.21	inactive
MSGN1	3	0.321	38.9	48.6	inactive
MSGN1	4	-0.249	113	95.4	inactive
